Measurements from paper PMC4066777.
These are yes or no findings as the source states them, for the method shown. In cells and extracts the contact can be indirect. Some results given as binding are weak or reduced against the parent protein; the word gives no strength.

Chains of the proteins cited; added tags and fusions are not shown.
UniProt P38919: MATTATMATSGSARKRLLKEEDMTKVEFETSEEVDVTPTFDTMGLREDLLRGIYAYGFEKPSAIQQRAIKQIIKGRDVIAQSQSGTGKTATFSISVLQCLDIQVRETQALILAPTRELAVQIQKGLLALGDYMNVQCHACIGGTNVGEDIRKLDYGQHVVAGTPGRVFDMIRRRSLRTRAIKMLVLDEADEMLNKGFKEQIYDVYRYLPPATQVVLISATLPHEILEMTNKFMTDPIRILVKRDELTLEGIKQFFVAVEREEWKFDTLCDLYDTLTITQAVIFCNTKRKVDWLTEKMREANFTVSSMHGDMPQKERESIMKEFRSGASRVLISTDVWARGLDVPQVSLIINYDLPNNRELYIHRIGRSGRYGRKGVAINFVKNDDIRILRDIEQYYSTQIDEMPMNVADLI
UniProt Q8NI27: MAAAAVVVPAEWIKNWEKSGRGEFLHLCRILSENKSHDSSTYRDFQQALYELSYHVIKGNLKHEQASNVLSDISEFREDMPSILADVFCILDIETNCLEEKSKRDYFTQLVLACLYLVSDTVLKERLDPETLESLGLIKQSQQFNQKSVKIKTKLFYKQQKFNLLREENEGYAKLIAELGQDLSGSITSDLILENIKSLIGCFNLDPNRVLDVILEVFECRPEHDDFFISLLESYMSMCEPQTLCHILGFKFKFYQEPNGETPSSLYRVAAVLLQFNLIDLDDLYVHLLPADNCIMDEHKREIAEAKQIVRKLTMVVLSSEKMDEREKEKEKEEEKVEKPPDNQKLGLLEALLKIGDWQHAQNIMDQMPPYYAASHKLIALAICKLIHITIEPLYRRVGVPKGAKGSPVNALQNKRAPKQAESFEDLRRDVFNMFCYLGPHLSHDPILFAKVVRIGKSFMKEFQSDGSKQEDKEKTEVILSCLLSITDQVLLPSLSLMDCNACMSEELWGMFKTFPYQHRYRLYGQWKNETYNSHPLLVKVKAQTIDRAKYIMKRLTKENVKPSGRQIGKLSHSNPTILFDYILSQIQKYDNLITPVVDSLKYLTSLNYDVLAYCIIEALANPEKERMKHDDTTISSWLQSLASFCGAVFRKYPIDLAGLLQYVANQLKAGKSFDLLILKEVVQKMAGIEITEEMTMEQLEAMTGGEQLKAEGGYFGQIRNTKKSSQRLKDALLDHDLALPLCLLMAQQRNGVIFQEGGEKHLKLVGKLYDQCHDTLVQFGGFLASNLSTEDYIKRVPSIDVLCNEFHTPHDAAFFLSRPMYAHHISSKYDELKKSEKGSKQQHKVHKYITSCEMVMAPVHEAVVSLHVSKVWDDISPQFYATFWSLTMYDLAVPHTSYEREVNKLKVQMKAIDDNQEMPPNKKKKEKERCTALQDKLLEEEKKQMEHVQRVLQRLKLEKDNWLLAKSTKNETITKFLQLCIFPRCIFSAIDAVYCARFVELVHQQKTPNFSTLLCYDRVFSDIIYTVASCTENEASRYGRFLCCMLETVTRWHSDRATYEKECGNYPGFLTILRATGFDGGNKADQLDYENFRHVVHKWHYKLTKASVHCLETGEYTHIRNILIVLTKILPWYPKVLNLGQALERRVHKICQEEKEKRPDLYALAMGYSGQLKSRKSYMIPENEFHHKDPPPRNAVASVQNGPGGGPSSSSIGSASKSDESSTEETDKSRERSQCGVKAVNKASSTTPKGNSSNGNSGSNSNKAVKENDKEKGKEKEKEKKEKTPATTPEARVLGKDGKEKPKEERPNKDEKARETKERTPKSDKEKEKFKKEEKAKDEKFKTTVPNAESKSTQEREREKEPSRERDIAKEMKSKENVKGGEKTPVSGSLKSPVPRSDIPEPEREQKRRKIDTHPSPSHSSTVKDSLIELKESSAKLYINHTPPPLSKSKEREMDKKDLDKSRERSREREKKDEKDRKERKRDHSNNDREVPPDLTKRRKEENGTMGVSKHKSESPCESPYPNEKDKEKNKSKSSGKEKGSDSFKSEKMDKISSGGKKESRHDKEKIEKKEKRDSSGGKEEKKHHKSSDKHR

Columns and labels:
[1] = molecular target: eIF4AIII (endogenous) (human (endogenous in HeLa)) (UniProt P38919); test: co-IP; IP with Thoc2 or eIF4A3 antibody from RNase A-treated lysates of HeLa cells transfected with pcDNA3-ZC3H18; western; binding buffer 20 mM Tris, 100 mM NaCl, 2 mM EDTA, 1 mM DTT, 1 mM PMSF, 0.1% Triton; overnight at 4°C, six washes
[2] = molecular target: Thoc2 (human (endogenous in HeLa)) (UniProt Q8NI27); test: as above

- binding [1]: no binding
- binding [2]: binds
B1: ZC3H18 (exogenous, from the pcDNA3-ZC3H18 plasmid) (protein, UniProt Q86VM9 1-953)
chain: MDVAESPERDPHSPEDEEQPQGLSDDDILRDSGSDQDLDGAGVRASDLEDEESAARGPSQEEEDNHSDEEDRASEPKSQDQDSEVNELSRGPTSSPCEEEGDEGEEDRTSDLRDEASSVTRELDEHELDYDEEVPEEPAPAVQEDEAEKAGAEDDEEKGEGTPREEGKAGVQSVGEKESLEAAKEKKKEDDDGEIDDGEIDDDDLEEGEVKDPSDRKVRPRPTCRFFMKGNCTWGMNCRFIHPGVNDKGNYSLITKADPFPPNGAPPLGPHPLMPANPWGGPVVDEILPPPPPEPPTESAWERGLRHAKEVLKKATIRKEQEPDFEEKRFTVTIGEDEREFDKENEVFRDWNSRIPRDVRDTVLEPYADPYYDYEIERFWRGGQYENFRVQYTETEPYHNYRERERERERENRQRERERERERDRERERRQRERERERERERDKERQRRKEEWERERAKRDEKDRQHRDRDREKEREKEKGKPKPRSPQPPSRQAEPPKKEAATTGPQVKRADEWKDPWRRSKSPKKKLGVSVSPSRARRRRKTSASSASASNSSRSSSRSSSYSGSGSSRSRSRSSSYSSYSSRSSRHSSFSGSRSRSRSFSSSPSPSPTPSPHRPSIRTKGEPAPPPGKAGEKSVKKPAPPPAPPQATKTTAPVPEPTKPGDPREARRKERPARTPPRRRTLSGSGSGSGSSYSGSSSRSRSLSVSSVSSVSSATSSSSSAHSVDSEDMYADLASPVSSASSRSPAPAQTRKEKGKSKKEDGVKEEKRKRDSSTQPPKSAKPPAGGKSSQQPSTPQQAPPGQPQQGTFVAHKEIKLTLLNKAADKGSRKRYEPSDKDRQSPPPAKRPNTSPDRGSRDRKSGGRLGSPKPERQRGQNSKAPAAPADRKRQLSPQSKSSSKVTSVPGKASDPGAASTKSGKASTLSRREELLKQLKAVEDAIARKRAKIPGKA
